PubChem BioAssay AID1224828 | NIAID, 2016

Purpose: 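Regulators linking TLR4 signalling to p65 nuclear translocation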 (primary screen)
Cell system: mouse RAW264.7 G9 macrophage reporter cells (GFP-p65, Tnf promoter-mCherry)
Reagent: siRNA pool against mouse genes, 100 nM
Timing: 2 days siRNA transfection, then 40 min LPS before fixation
Challenge: LPS (Salmonella minnesota R595) at 10 ng/ml
Read-out: 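Microscopy ratio of nuclear to perinuclear-ring GFP-p65 signal, scaled to the plate median; gene score is the average of two replicate robust z-scores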
Scale: p65 translocation robust z-score: higher = more nuclear NF-kappaB p65 after LPS than the plate median; nuclear/cytoplasmic p65 ratio: higher = more nuclear NF-kappaB p65
Active means: 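Active if robust z is above 3.3 (negative regulators) or below -1.56, the Tlr4 control median (positive regulators); activity score 50 or more; control wells not called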
Meaning of the calls: active = hit (p65 shift raised or lowered); inactive = no clear change
Here is a random part of about 17,000 deposited reagents. 762 of them (4.5%) were called active. 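Active calls include both raised and lowered p65 entry, mostly lowered; wells with fewer than 50 cells lack a z-score.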 Raw values are not corrected between plates. Entries without a mark were called inactive. A reagent listed more than once was tested more than once; the source does not tell the runs apart.

Abcd2 (ATP-binding cassette, sub-family D member 2) | p65 translocation robust z-score: 0.83; nuclear/cytoplasmic p65 ratio, rep 1: 1.77; nuclear/cytoplasmic p65 ratio, rep 2: 1.77; low cell count flag: enough cells to score
Rfpl4 (ret finger protein-like 4) | p65 translocation robust z-score: 0.65; nuclear/cytoplasmic p65 ratio, rep 1: 1.5; nuclear/cytoplasmic p65 ratio, rep 2: 1.3; low cell count flag: enough cells to score
Appbp2 (amyloid beta precursor protein binding protein 2) | p65 translocation robust z-score: -0.23; nuclear/cytoplasmic p65 ratio, rep 1: 1.54; nuclear/cytoplasmic p65 ratio, rep 2: 1.63; low cell count flag: enough cells to score
Prpf40a (pre-mRNA processing factor 40A) | p65 translocation robust z-score: 1.15; nuclear/cytoplasmic p65 ratio, rep 1: 1.79; nuclear/cytoplasmic p65 ratio, rep 2: 1.59; low cell count flag: enough cells to score
Fundc2 (FUN14 domain containing 2) | nuclear/cytoplasmic p65 ratio, rep 1: 1.39; nuclear/cytoplasmic p65 ratio, rep 2: 1.23; low cell count flag: fewer than 50 cells per well; well left out of scoring
Or2y13 (olfactory receptor family 2 subfamily Y member 13) | nuclear/cytoplasmic p65 ratio, rep 1: 1.66; nuclear/cytoplasmic p65 ratio, rep 2: 1.3; low cell count flag: fewer than 50 cells per well; well left out of scoring
Ccny (cyclin Y) | p65 translocation robust z-score: 0.49; nuclear/cytoplasmic p65 ratio, rep 1: 1.65; nuclear/cytoplasmic p65 ratio, rep 2: 1.73; low cell count flag: enough cells to score
Hnrnpk (heterogeneous nuclear ribonucleoprotein K) | p65 translocation robust z-score: 0.02; nuclear/cytoplasmic p65 ratio, rep 1: 1.36; nuclear/cytoplasmic p65 ratio, rep 2: 1.45; low cell count flag: enough cells to score
Cpsf7 (cleavage and polyadenylation specific factor 7) | p65 translocation robust z-score: -0.71; nuclear/cytoplasmic p65 ratio, rep 1: 1.28; nuclear/cytoplasmic p65 ratio, rep 2: 1.37; low cell count flag: enough cells to score
Sdhd | p65 translocation robust z-score: 0.51; nuclear/cytoplasmic p65 ratio, rep 1: 1.46; nuclear/cytoplasmic p65 ratio, rep 2: 1.79; low cell count flag: enough cells to score
Clptm1l (CLPTM1-like) | p65 translocation robust z-score: 0.8; nuclear/cytoplasmic p65 ratio, rep 1: 1.6; nuclear/cytoplasmic p65 ratio, rep 2: 1.58; low cell count flag: enough cells to score
Vmn1r45 (vomeronasal 1 receptor 45) | p65 translocation robust z-score: -0.73; nuclear/cytoplasmic p65 ratio, rep 1: 1.24; nuclear/cytoplasmic p65 ratio, rep 2: 1.19; low cell count flag: enough cells to score
C1qtnf6 (C1q and tumor necrosis factor related protein 6) | p65 translocation robust z-score: 0.66; nuclear/cytoplasmic p65 ratio, rep 1: 1.46; nuclear/cytoplasmic p65 ratio, rep 2: 1.68; low cell count flag: enough cells to score
Slc39a5 | nuclear/cytoplasmic p65 ratio, rep 1: 1.37; nuclear/cytoplasmic p65 ratio, rep 2: 1.26; low cell count flag: fewer than 50 cells per well; well left out of scoring
Vmn2r57 (vomeronasal 2, receptor 57) | p65 translocation robust z-score: 0.01; nuclear/cytoplasmic p65 ratio, rep 1: 1.57; nuclear/cytoplasmic p65 ratio, rep 2: 1.55; low cell count flag: enough cells to score
Slc6a8 | p65 translocation robust z-score: 0.75; nuclear/cytoplasmic p65 ratio, rep 1: 1.64; nuclear/cytoplasmic p65 ratio, rep 2: 1.61; low cell count flag: enough cells to score

Reprinted from above (2 entries):
Prpf40a (pre-mRNA processing factor 40A) | p65 translocation robust z-score: 1.15; nuclear/cytoplasmic p65 ratio, rep 1: 1.79; nuclear/cytoplasmic p65 ratio, rep 2: 1.59; low cell count flag: enough cells to score
Fundc2 (FUN14 domain containing 2) | nuclear/cytoplasmic p65 ratio, rep 1: 1.39; nuclear/cytoplasmic p65 ratio, rep 2: 1.23; low cell count flag: fewer than 50 cells per well; well left out of scoring

The results go on:
Rnf144a (ring finger protein 144A) | p65 translocation robust z-score: -0.42; nuclear/cytoplasmic p65 ratio, rep 1: 1.51; nuclear/cytoplasmic p65 ratio, rep 2: 1.4; low cell count flag: enough cells to score
Aldoart2 (aldolase 1 A, retrogene 2) | nuclear/cytoplasmic p65 ratio, rep 1: 1.25; nuclear/cytoplasmic p65 ratio, rep 2: 1.31; low cell count flag: fewer than 50 cells per well; well left out of scoring
Scn1a (sodium channel, voltage-gated, type I, alpha) | p65 translocation robust z-score: 0.97; nuclear/cytoplasmic p65 ratio, rep 1: 1.55; nuclear/cytoplasmic p65 ratio, rep 2: 1.33; low cell count flag: enough cells to score
Adra1a (adrenergic receptor, alpha 1a) | p65 translocation robust z-score: -1.81 (active); nuclear/cytoplasmic p65 ratio, rep 1: 1.46; nuclear/cytoplasmic p65 ratio, rep 2: 1.11; low cell count flag: enough cells to score
Adra1a (adrenergic receptor, alpha 1a) | p65 translocation robust z-score: -0.54; nuclear/cytoplasmic p65 ratio, rep 1: 1.43; nuclear/cytoplasmic p65 ratio, rep 2: 1.5; low cell count flag: enough cells to score
Prss30 (serine protease 30) | nuclear/cytoplasmic p65 ratio, rep 1: 1.43; nuclear/cytoplasmic p65 ratio, rep 2: 1.46; low cell count flag: fewer than 50 cells per well; well left out of scoring
Oaz2 (ornithine decarboxylase antizyme 2) | p65 translocation robust z-score: 0.22; nuclear/cytoplasmic p65 ratio, rep 1: 1.46; nuclear/cytoplasmic p65 ratio, rep 2: 1.46; low cell count flag: enough cells to score
Krt79 (keratin 79) | p65 translocation robust z-score: -2.81 (active); nuclear/cytoplasmic p65 ratio, rep 1: 1.16; nuclear/cytoplasmic p65 ratio, rep 2: 1.37; low cell count flag: enough cells to score
Acvrl1 (activin A receptor, type II-like 1) | nuclear/cytoplasmic p65 ratio, rep 1: 1.47; nuclear/cytoplasmic p65 ratio, rep 2: 1.22; low cell count flag: fewer than 50 cells per well; well left out of scoring
Prdm5 (PR domain containing 5) | p65 translocation robust z-score: 0.63; nuclear/cytoplasmic p65 ratio, rep 1: 1.66; nuclear/cytoplasmic p65 ratio, rep 2: 1.42; low cell count flag: enough cells to score
Dpcd (deleted in primary ciliary dyskinesia) | p65 translocation robust z-score: 0.98; nuclear/cytoplasmic p65 ratio, rep 1: 1.5; nuclear/cytoplasmic p65 ratio, rep 2: 1.58; low cell count flag: enough cells to score
